This passage reports binding results from PMC6639074.

Chains of the proteins cited; added tags and fusions are not shown. Lines headed by an entry give the natural chain unless they say otherwise; changes in a name come on top.
UniProt P61019: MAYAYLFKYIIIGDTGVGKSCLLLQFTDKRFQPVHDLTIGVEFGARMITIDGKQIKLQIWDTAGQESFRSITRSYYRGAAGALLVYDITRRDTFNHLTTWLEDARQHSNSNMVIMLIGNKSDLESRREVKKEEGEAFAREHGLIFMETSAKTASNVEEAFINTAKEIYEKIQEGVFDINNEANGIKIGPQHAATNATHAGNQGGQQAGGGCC

The target of assay [1] is Rab2A(Q65L)-BirA*-HA-MAO (human) (UniProt P61019). Nature of the assay: proximity labelling; MitoID: GTPase-BirA*-HA-MAO chimera on mitochondria of transiently transfected HEK293T cells, 50 uM biotin 18 h, streptavidin beads, mass spectrometry, biological triplicates; hits by WD scores and volcano plots against the GDP-locked forms.
Assay [2] has as its target Rab11A(S25N)-BirA*-HA-MAO (human). The assay is described as above.

Results are given in words; binding and its absence hold for the method and conditions named. Binding seen in cells or lysates may run through a third protein. These calls come from enrichment with a bait or labelling near it, and not all partners need be listed. For some assays here: Where a sequence is shown, tags or fusion partners need not be part of it.

B1: STAMBPL1 (protein, UniProt Q96FJ0 1-436)
chain: MDQPFTVNSLKKLAAMPDHTDVSLSPEERVRALSKLGCNITISEDITPRRYFRSGVEMERMASVYLEEGNLENAFVLYNKFITLFVEKLPNHRDYQQCAVPEKQDIMKKLKEIAFPRTDELKNDLLKKYNVEYQEYLQSKNKYKAEILKKLEHQRLIEAERKRIAQMRQQQLESEQFLFFEDQLKKQELARGQMRSQQTSGLSEQIDGSALSCFSTHQNNSLLNVFADQPNKSDATNYASHSPPVNRALTPAATLSAVQNLVVEGLRCVVLPEDLCHKFLQLAESNTVRGIETCGILCGKLTHNEFTITHVIVPKQSAGPDYCDMENVEELFNVQDQHDLLTLGWIHTHPTQTAFLSSVDLHTHCSYQLMLPEAIAIVCSPKHKDTGIFRLTNAGMLEVSACKKKGFHPHTKEPRLFSICKHVLVKDIKIIVLDLR
Regarding B1, in assay [1], the binding entry is recorded as “binds”.

B2: ICA1 (protein, UniProt Q05084 1-483)
chain: MSGHKCSYPWDLQDRYAQDKSVVNKMQQKYWETKQAFIKATGKKEDEHVVASDADLDAKLELFHSIQRTCLDLSKAIVLYQKRICFLSQEENELGKFLRSQGFQDKTRAGKMMQATGKALCFSSQQRLALRNPLCRFHQEVETFRHRAISDTWLTVNRMEQCRTEYRGALLWMKDVSQELDPDLYKQMEKFRKVQTQVRLAKKNFDKLKMDVCQKVDLLGASRCNLLSHMLATYQTTLLHFWEKTSHTMAAIHESFKGYQPYEFTTLKSLQDPMKKLVEKEEKKKINQQESTDAAVQEPSQLISLEEENQRKESSSFKTEDGKSILSALDKGSTHTACSGPIDELLDMKSEEGACLGPVAGTPEPEGADKDDLLLLSEIFNASSLEEGEFSKEWAAVFGDGQVKEPVPTMALGEPDPKAQTGSGFLPSQLLDQNMKDLQASLQEPAKAASDLTAWFSLFADLDPLSNPDAVGKTDKEHELLNA
Turning to B2, the binding entry in assay [1] is given as “binds”.

B3: SH3BP5 (protein, UniProt O60239 1-455)
chain: MDAALKRSRSEEPAEILPPARDEEEEEEEGMEQGLEEEEEVDPRIQGELEKLNQSTDDINRRETELEDARQKFRSVLVEATVKLDELVKKIGKAVEDSKPYWEARRVARQAQLEAQKATQDFQRATEVLRAAKETISLAEQRLLEDDKRQFDSAWQEMLNHATQRVMEAEQTKTRSELVHKETAARYNAAMGRMRQLEKKLKRAINKSKPYFELKAKYYVQLEQLKKTVDDLQAKLTLAKGEYKMALKNLEMISDEIHERRRSSAMGPRGCGVGAEGSSTSVEDLPGSKPEPDAISVASEAFEDDSCSNFVSEDDSETQSVSSFSSGPTSPSEMPDQFPAVVRPGSLDLPSPVSLSEFGMMFPVLGPRSECSGASSPECEVERGDRAEGAENKTSDKANNNRGLSSSSGSGGSSKSQSSTSPEGQALENRMKQLSLQCSKGRDGIIADIKMVQIG
B3: the binding entry in assay [2] is listed as “binds”.

B4: SH3BP5L (protein, UniProt Q7L8J4 1-393)
chain: MAELRQVPGGRETPQGELRPEVVEDEVPRSPVAEEPGGGGSSSSEAKLSPREEEELDPRIQEELEHLNQASEEINQVELQLDEARTTYRRILQESARKLNTQGSHLGSCIEKARPYYEARRLAKEAQQETQKAALRYERAVSMHNAAREMVFVAEQGVMADKNRLDPTWQEMLNHATCKVNEAEEERLRGEREHQRVTRLCQQAEARVQALQKTLRRAIGKSRPYFELKAQFSQILEEHKAKVTELEQQVAQAKTRYSVALRNLEQISEQIHARRRGGLPPHPLGPRRSSPVGAEAGPEDMEDGDSGIEGAEGAGLEEGSSLGPGPAPDTDTLSLLSLRTVASDLQKCDSVEHLRGLSDHVSLDGQELGTRSGGRRGSDGGARGGRHQRSVSL
Consider B4, for which, in assay [2], the binding entry was “binds”.

B5: BLZF1/golgin45 (protein, UniProt Q9H2G9 1-400)
chain: MTTKNLETKVTVTSSPIRGAGDGMETEEPPKSVEVTSGVQSRKHHSLQSPWKKAVPSESPGVLQLGKMLTEKAMEVKAVRILVPKAAITHDIPNKNTKVKSLGHHKGEFLGQSEGVIEPNKELSEVKNVLEKLKNSERRLLQDKEGLSNQLRVQTEVNRELKKLLVASVGDDLQYHFERLAREKNQLILENEALGRNTAQLSEQLERMSIQCDVWRSKFLASRVMADELTNSRAALQRQNRDAHGAIQDLLSEREQFRQEMIATQKLLEELLVSLQWGREQTYSPSVQPHSTAELALTNHKLAKAVNSHLLGNVGINNQKKIPSTVEFCSTPAEKMAETVLRILDPVTCKESSPDNPFFESSPTTLLATKKNIGRFHPYTRYENITFNCCNHCRGELIAL
In the case of B5, in assay [1], the binding result was “binds”.

B6: USO1/p115 (protein, UniProt O60763 1-962)
chain: MNFLRGVMGGQSAGPQHTEAETIQKLCDRVASSTLLDDRRNAVRALKSLSKKYRLEVGIQAMEHLIHVLQTDRSDSEIIGYALDTLYNIISNEEEEEVEENSTRQSEDLGSQFTEIFIKQQENVTLLLSLLEEFDFHVRWPGVKLLTSLLKQLGPQVQQIILVSPMGVSRLMDLLADSREVIRNDGVLLLQALTRSNGAIQKIVAFENAFERLLDIISEEGNSDGGIVVEDCLILLQNLLKNNNSNQNFFKEGSYIQRMKPWFEVGDENSGWSAQKVTNLHLMLQLVRVLVSPTNPPGATSSCQKAMFQCGLLQQLCTILMATGVPADILTETINTVSEVIRGCQVNQDYFASVNAPSNPPRPAIVVLLMSMVNERQPFVLRCAVLYCFQCFLYKNQKGQGEIVSTLLPSTIDATGNSVSAGQLLCGGLFSTDSLSNWCAAVALAHALQENATQKEQLLRVQLATSIGNPPVSLLQQCTNILSQGSKIQTRVGLLMLLCTWLSNCPIAVTHFLHNSANVPFLTGQIAENLGEEEQLVQGLCALLLGISIYFNDNSLESYMKEKLKQLIEKRIGKENFIEKLGFISKHELYSRASQKPQPNFPSPEYMIFDHEFTKLVKELEGVITKAIYKSSEEDKKEEEVKKTLEQHDNIVTHYKNMIREQDLQLEELRQQVSTLKCQNEQLQTAVTQQVSQIQQHKDQYNLLKIQLGKDNQHQGSYSEGAQMNGIQPEEIGRLREEIEELKRNQELLQSQLTEKDSMIENMKSSQTSGTNEQSSAIVSARDSEQVAELKQELATLKSQLNSQSVEITKLQTEKQELLQKTEAFAKSVEVQGETETIIATKTTDVEGRLSALLQETKELKNEIKALSEERTAIKEQLDSSNSTIAILQTEKDKLELEITDSKKEQDDLLVLLADQDQKILSLKNKLKDLGHPVEEEDELESGDQEDEDDESEDPGKDLDHI
Regarding B6, the binding result in assay [1] is listed as “binds”.

B7: FAM184A (protein, UniProt Q8NB25 1-1140)
chain: MATPGMSWQQHYYGGSAAKFAPSPATAQLAGHSMDYSQEMHLKMSKKIAQLTKVIYALNTKNDEHESAIQALKDAHEEEIQQILAETREKILQYKSKVTEELDLRRKIQVLESSLEDHIKMKQQALTEFEAYKHRVEDMQLCAEAQHVQRIVTMSREVEEIRRKFEEKLRSFGQLQVQFEKDKRLALEDLQAAHRREIQELLKSQQDHSASVNKGQEKAEELHRMEVESLNKMLEELRLERKKLIEDYEGKLNKAQSFYERELDTLKRSQLFTAESLQASKEKEADLRKEFQGQEAILRKTIGKLKTELQMVQDEAGSLLDKCQKLQTALAIAENNVQVLQKQLDDAKEGEMALLSKHKEVESELAAARERLQQQASDLVLKASHIGMLQATQMTQEVTIKDLESEKSRVNERLSQLEEERAFLRSKTQSLDEEQKQQILELEKKVNEAKRTQQEYYERELKNLQSRLEEEVTQLNEAHSKTLEELAWKHHMAIEAVHSNAIRDKKKLQMDLEEQHNKDKLNLEEDKNQLQQELENLKEVLEDKLNTANQEIGHLQDMVRKSEQGLGSAEGLIASLQDSQERLQNELDLTKDSLKETKDALLNVEGELEQERQQHEETIAAMKEEEKLKVDKMAHDLEIKWTENLRQECSKLREELRLQHEEDKKSAMSQLLQLKDREKNAARDSWQKKVEDLLNQISLLKQNLEIQLSQSQTSLQQLQAQFTQERQRLTQELEELEEQHQQRHKSLKEAHVLAFQTMEEEKEKEQRALENHLQQKHSAELQSLKDAHRESMEGFRIEMEQELQTLRFELEDEGKAMLASLRSELNHQHAAAIDLLRHNHHQELAAAKMELERSIDISRRQSKEHICRITDLQEELRHREHHISELDKEVQHLHENISALTKELEFKGKEILRIRSESNQQIRLHEQDLNKRLEKELDVMTADHLREKNIMRADFNKTNELLKEINAALQVSLEEMEEKYLMRESKPEDIQMITELKAMLTERDQIIKKLIEDNKFYQLELVNRETNFNKVFNSSPTVGVINPLAKQKKKNDKSPTNRFVSVPNLSALESGGVGNGHPNRLDPIPNSPVHDIEFNSSKPLPQPVPPKGPKTFLSPAQSEASPVASPDPQRQEWFARYFTF
As to B7, the binding entry in assay [1] was “binds”.

B8: WDR11 (protein, UniProt Q9BZH6 1-1224)
chain: MLPYTVNFKVSARTLTGALNAHNKAAVDWGWQGLIAYGCHSLVVVIDSITAQTLQVLEKHKADVVKVKWARENYHHNIGSPYCLRLASADVNGKIIVWDVAAGVAQCEIQEHAKPIQDVQWLWNQDASRDLLLAIHPPNYIVLWNADTGTKLWKKSYADNILSFSFDPFDPSHLTLLTSEGIVFISDFSPSKPPSGPGKKVYISSPHSSPAHNKLATATGAKKALNKVKILITQEKPSAEFITLNDCLQLAYLPSKRNHMLLLYPREILILDLEVNQTVGVIAIERTGVPFLQVIPCFQRDGLFCLHENGCITLRVRRSYNNIFTTSNEEPDPDPVQELTYDLRSQCDAIRVTKTVRPFSMVCCPVNENAAALVVSDGRVMIWELKSAVCNRNSRNSSSGVSPLYSPVSFCGIPVGVLQNKLPDLSLDNMIGQSAIAGEEHPRGSILREVHLKFLLTGLLSGLPAPQFAIRMCPPLTTKNIKMYQPLLAVGTSNGSVLVYHLTSGLLHKELSIHSCEVKGIEWTSLTSFLSFATSTPNNMGLVRNELQLVDLPTGRSIAFRGERGNDESAIEMIKVSHLKQYLAVVFRDKPLELWDVRTCTLLREMSKNFPTITALEWSPSHNLKSLRKKQLATREAMARQTVVSDTELSIVESSVISLLQEAESKSELSQNISAREHFVFTDIDGQVYHLTVEGNSVKDSARIPPDGSMGSITCIAWKGDTLVLGDMDGNLNFWDLKGRVSRGIPTHRSWVRKIRFAPGKGNQKLIAMYNDGAEVWDTKEVQMVSSLRSGRNVTFRILDVDWCTSDKVILASDDGCIRVLEMSMKSACFRMDEQELTEPVWCPYLLVPRASLALKAFLLHQPWNGQYSLDISHVDYPENEEIKNLLQEQLNSLSNDIKKLLLDPEFTLLQRCLLVSRLYGDESELHFWTVAAHYLHSLSQEKSASTTAPKEAAPRDKLSNPLDICYDVLCENAYFQKFQLERVNLQEVKRSTYDHTRKCTDQLLLLGQTDRAVQLLLETSADNQHYYCDSLKACLVTTVTSSGPSQSTIKLVATNMIANGKLAEGVQLLCLIDKAADACRYLQTYGEWNRAAWLAKVRLNPEECADVLRRWVDHLCSPQVNQKSKALLVLLSLGCFFSVAETLHSMRYFDRAALFVEACLKYGAFEVTEDTEKLITAIYADYARSLKNLGFKQGAVLFASKAGAAGKDLLNELESPKEEPIEE
Take B8: in assay [1], the binding entry is listed as “binds”.
